From publication PMC4657098, “A Review of the Updated Pharmacophore for the Alpha 5 GABA(A) Benzodiazepine Receptor Model” (International Journal of Medicinal Chemistry, 2015) come the findings set out here.

Some entries of the source have several records that differ or are many. They are shown here; other results are not. There may be further records. The values listed for one entry differ for a reason that is not stated; some may be repeats, others may stem from another dose, organism or construct than stated.

This assay has as its target α6β3γ2 GABAA/BzR (Homo sapiens, UniProt P18507+Q16445). The experiment in a line: Competition binding to HEK cell membranes, α6β3γ2. The conditions noted are these: read-out: Ki α6.

The term Ki denotes the dissociation constant of the complex between target and ligand, obtained from inhibition or displacement. For the compound `CN1C(=O)CN=C(c2ccccc2[N+](=O)[O-])c2cc([N+](=O)[O-])ccc21`, the Ki is 10 µM and 1 µM.
